Experimental data reported in patent publication US9981005.
Results are given in words; binding and its absence hold for the method and conditions named. Some results given as binding are weak or reduced against the parent protein; the word gives no strength.

Amino acid sequences for entries named in this document (tags omitted). A change or cut given only in a name is not applied to a line headed by its entry.
UniProt F1MNN4: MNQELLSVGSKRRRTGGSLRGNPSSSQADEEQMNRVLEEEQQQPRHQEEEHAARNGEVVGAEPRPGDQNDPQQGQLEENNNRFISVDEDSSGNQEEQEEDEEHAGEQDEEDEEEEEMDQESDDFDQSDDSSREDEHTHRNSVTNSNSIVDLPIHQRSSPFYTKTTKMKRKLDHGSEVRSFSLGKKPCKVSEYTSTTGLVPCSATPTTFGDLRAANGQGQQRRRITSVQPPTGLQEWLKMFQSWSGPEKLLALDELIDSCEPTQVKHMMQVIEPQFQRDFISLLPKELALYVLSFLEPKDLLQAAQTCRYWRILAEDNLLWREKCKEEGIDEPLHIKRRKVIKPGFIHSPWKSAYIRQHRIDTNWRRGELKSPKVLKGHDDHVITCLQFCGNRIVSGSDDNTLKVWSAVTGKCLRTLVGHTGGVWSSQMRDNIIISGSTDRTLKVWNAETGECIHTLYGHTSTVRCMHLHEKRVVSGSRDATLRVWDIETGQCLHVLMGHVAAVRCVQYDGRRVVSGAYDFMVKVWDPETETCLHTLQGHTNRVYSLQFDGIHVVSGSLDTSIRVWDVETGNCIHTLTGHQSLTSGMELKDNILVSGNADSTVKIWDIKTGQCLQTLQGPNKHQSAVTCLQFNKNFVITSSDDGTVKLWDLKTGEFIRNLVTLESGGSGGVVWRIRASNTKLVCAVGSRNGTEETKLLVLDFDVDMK

B1: 24-mer DISC1 peptide … phosphorylated at Ser202 (peptide)
peptide: GPEVPPTPPGSHSAFTSSFSFIRL
modifications: phosphoserine at Ser202 (position 11 of the peptide)
B2: 24-mer DISC1 peptide … phosphorylated at Thr198 (peptide)
peptide: GPEVPPTPPGSHSAFTSSFSFIRL
modifications: phosphothreonine at Thr198 (position 7 of the peptide)
B3: 24-mer DISC1 peptide … phosphorylated at Thr198 and Ser202 (peptide)
peptide: GPEVPPTPPGSHSAFTSSFSFIRL
modifications: phosphothreonine at Thr198 (position 7); phosphoserine at Ser202 (position 11)
B4: 24-mer DISC1 peptide … (peptide)
peptide: GPEVPPTPPGSHSAFTSSFSFIRL
B5: Peptide 139: G-mE-P-P-G-mE-H (peptide)
peptide: GEPPGEH
modifications: 2: N-methyl-Glu; 6: N-methyl-Glu
B6: Peptide 64: P-E-P-P-G-mD-H (peptide)
peptide: PEPPGDH
modifications: 6: N-methyl-Asp
B7: Peptide 142: G-mD-P-P-G-mE-H (peptide)
peptide: GDPPGEH
modifications: 2: N-methyl-Asp; 6: N-methyl-Glu
B8: A45 G-mD-P-P-G-mE (peptide)
peptide: GDPPGE
modifications: 2: N-methyl-Asp; 6: N-methyl-Glu
B9: A189 P-P-G-mE-H (peptide)
peptide: PPGEH
modifications: 4: N-methyl-Glu
B10: A52 G-mD-P-P-Q-mE-H (peptide)
peptide: GDPPQEH
modifications: 2: N-methyl-Asp; 6: N-methyl-Glu
B11: A82 P-A-P-P-G-mE-H (peptide)
peptide: PAPPGEH
modifications: 6: N-methyl-Glu
B12: A22 G-A-P-P-G-mE-H (peptide)
peptide: GAPPGEH
modifications: 6: N-methyl-Glu
B13: A58 L-mD-P-P-G-mE-H (peptide)
peptide: LDPPGEH
modifications: 2: N-methyl-Asp; 6: N-methyl-Glu
B14: A102 P-A-P-P-G-mD-H (peptide)
peptide: PAPPGDH
modifications: 6: N-methyl-Asp
B15: A151 P-E-P-P-Q-mD-H (peptide)
peptide: PEPPQDH
modifications: 6: N-methyl-Asp
B16: A144 P-E-P-P-G-mD (peptide)
peptide: PEPPGD
modifications: 6: N-methyl-Asp

target: FBXW7 (F-box/WD repeat-containing protein 7) (Bos taurus (Bovine)) (UniProt F1MNN4); assay: peptides immobilised on membranes, screened for FBXW7 binding

binding, binds:
B1
B2
B3
B4

target: FBXW7 (F-box/WD repeat-containing protein 7) (Bos taurus (Bovine)) (UniProt F1MNN4); assay: peptide binding screen against FBXW7 (substituted 7-mer panel)

binding, binds:
B5
B6
B7

target: FBXW7 (F-box/WD repeat-containing protein 7) (Bos taurus (Bovine)) (UniProt F1MNN4); assay: peptide binding screen against FBXW7 (truncation/substitution panels)

binding, binds:
B8
B9
B10
B11
B12
B13
B14
B15
B16
